Earlier results in patent US8586551B2, “18-membered macrocycles and analogs thereof” (Optimer Pharmaceuticals, Inc., priority 2005, dated 2013).
Some entries share one result that the patent states for a list of compounds.

System: C. difficile
Conditions: after treatment of CDAD; cited from earlier work

Question: Which Clinical recurrence does the source give for Cc1ncc([N+](=O)[O-])n1CCO [Metronidazole, reference compound] here?
Answer: up to 20 % of cases
